No constants are given. Whether binding was seen depends on the method and setting. In cells and extracts the contact can be indirect. Some binding calls cover weakened binding; strength is not graded here. For some of these results: Sequences can lack the tags named with a protein.
Assays:
[1] = target: T1, GFP-tagged WT-PARP7 (human) (UniProt Q7Z3E1); assay: co-IP
T1 sequence: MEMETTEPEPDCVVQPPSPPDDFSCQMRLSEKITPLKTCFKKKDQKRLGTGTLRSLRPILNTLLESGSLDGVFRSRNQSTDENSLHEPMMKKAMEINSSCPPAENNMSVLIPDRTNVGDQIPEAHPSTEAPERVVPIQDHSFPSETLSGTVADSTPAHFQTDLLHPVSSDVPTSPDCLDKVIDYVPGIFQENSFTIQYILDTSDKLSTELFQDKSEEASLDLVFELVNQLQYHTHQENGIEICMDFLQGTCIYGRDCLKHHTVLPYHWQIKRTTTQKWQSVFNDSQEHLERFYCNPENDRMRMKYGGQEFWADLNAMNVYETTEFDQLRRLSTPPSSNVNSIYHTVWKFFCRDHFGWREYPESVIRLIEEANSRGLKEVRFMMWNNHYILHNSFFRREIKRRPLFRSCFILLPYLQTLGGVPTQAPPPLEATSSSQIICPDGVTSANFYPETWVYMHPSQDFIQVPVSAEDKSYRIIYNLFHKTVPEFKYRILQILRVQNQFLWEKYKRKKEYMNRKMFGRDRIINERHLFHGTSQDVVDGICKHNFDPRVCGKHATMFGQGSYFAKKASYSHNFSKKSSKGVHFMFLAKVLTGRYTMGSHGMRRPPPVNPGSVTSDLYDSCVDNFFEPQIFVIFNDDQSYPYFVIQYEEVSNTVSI

Sequences of proteins named here, by UniProt entry; tags and fusion partners are left off. A change or cut given only in a name is not applied to a line headed by its entry.
UniProt Q92793: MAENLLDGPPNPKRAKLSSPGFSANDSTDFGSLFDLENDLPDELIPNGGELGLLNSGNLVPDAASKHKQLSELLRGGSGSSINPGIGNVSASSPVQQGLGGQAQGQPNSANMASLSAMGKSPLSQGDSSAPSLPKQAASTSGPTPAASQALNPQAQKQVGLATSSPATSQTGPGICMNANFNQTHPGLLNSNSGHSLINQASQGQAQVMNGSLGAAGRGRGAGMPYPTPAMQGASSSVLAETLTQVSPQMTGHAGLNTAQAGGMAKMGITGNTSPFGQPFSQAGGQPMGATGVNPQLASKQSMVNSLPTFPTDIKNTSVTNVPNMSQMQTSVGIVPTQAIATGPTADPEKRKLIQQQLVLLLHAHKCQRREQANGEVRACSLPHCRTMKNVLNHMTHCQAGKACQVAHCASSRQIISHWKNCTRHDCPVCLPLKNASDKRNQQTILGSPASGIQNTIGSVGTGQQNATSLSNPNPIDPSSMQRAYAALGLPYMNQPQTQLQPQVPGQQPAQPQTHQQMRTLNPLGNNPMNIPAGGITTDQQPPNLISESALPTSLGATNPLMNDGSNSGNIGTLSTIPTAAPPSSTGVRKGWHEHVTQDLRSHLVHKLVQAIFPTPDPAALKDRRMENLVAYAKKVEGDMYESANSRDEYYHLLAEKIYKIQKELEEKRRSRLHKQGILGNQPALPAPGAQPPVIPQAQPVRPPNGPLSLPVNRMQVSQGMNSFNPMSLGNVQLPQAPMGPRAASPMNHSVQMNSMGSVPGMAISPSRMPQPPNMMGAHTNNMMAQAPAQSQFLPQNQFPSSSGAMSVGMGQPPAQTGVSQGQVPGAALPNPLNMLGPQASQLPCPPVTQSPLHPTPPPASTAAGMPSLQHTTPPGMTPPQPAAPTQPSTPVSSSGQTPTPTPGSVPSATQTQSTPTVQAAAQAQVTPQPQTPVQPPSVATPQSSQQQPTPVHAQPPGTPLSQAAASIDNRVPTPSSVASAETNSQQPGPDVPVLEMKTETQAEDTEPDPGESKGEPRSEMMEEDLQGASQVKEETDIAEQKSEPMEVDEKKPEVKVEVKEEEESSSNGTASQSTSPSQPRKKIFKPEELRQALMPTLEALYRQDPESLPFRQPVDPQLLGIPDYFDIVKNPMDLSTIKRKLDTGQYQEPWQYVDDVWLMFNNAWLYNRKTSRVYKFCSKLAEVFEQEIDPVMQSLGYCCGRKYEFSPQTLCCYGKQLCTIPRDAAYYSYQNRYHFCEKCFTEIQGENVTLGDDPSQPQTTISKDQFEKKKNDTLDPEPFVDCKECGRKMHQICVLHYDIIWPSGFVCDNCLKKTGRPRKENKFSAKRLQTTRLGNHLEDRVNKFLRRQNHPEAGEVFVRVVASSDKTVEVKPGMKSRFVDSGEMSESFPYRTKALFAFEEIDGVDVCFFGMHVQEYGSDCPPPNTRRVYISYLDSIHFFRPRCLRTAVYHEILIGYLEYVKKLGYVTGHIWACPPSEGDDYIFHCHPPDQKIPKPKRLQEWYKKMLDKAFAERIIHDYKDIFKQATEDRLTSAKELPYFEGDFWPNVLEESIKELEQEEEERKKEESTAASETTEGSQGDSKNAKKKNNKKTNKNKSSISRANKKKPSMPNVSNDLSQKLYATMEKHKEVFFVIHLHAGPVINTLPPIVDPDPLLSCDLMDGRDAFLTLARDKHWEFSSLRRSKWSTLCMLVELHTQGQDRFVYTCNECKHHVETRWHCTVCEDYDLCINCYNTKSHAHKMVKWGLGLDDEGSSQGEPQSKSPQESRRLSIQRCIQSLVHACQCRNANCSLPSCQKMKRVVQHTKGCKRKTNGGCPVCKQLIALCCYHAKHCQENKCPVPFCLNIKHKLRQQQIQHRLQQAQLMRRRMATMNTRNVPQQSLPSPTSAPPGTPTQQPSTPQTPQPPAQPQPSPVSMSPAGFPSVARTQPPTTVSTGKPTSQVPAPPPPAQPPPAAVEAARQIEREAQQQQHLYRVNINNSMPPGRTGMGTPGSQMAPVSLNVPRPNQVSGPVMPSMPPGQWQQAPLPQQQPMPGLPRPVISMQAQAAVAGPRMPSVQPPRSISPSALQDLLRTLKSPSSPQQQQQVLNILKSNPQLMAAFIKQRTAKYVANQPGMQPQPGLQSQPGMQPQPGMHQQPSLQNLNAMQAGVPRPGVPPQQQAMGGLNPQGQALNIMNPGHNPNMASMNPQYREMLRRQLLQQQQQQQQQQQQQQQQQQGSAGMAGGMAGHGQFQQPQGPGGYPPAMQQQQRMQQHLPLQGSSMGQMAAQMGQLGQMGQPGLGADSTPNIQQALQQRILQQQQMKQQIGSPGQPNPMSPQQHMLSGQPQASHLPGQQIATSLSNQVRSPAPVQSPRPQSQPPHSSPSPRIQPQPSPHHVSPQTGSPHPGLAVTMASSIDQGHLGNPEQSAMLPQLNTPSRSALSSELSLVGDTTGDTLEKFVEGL
UniProt Q09472: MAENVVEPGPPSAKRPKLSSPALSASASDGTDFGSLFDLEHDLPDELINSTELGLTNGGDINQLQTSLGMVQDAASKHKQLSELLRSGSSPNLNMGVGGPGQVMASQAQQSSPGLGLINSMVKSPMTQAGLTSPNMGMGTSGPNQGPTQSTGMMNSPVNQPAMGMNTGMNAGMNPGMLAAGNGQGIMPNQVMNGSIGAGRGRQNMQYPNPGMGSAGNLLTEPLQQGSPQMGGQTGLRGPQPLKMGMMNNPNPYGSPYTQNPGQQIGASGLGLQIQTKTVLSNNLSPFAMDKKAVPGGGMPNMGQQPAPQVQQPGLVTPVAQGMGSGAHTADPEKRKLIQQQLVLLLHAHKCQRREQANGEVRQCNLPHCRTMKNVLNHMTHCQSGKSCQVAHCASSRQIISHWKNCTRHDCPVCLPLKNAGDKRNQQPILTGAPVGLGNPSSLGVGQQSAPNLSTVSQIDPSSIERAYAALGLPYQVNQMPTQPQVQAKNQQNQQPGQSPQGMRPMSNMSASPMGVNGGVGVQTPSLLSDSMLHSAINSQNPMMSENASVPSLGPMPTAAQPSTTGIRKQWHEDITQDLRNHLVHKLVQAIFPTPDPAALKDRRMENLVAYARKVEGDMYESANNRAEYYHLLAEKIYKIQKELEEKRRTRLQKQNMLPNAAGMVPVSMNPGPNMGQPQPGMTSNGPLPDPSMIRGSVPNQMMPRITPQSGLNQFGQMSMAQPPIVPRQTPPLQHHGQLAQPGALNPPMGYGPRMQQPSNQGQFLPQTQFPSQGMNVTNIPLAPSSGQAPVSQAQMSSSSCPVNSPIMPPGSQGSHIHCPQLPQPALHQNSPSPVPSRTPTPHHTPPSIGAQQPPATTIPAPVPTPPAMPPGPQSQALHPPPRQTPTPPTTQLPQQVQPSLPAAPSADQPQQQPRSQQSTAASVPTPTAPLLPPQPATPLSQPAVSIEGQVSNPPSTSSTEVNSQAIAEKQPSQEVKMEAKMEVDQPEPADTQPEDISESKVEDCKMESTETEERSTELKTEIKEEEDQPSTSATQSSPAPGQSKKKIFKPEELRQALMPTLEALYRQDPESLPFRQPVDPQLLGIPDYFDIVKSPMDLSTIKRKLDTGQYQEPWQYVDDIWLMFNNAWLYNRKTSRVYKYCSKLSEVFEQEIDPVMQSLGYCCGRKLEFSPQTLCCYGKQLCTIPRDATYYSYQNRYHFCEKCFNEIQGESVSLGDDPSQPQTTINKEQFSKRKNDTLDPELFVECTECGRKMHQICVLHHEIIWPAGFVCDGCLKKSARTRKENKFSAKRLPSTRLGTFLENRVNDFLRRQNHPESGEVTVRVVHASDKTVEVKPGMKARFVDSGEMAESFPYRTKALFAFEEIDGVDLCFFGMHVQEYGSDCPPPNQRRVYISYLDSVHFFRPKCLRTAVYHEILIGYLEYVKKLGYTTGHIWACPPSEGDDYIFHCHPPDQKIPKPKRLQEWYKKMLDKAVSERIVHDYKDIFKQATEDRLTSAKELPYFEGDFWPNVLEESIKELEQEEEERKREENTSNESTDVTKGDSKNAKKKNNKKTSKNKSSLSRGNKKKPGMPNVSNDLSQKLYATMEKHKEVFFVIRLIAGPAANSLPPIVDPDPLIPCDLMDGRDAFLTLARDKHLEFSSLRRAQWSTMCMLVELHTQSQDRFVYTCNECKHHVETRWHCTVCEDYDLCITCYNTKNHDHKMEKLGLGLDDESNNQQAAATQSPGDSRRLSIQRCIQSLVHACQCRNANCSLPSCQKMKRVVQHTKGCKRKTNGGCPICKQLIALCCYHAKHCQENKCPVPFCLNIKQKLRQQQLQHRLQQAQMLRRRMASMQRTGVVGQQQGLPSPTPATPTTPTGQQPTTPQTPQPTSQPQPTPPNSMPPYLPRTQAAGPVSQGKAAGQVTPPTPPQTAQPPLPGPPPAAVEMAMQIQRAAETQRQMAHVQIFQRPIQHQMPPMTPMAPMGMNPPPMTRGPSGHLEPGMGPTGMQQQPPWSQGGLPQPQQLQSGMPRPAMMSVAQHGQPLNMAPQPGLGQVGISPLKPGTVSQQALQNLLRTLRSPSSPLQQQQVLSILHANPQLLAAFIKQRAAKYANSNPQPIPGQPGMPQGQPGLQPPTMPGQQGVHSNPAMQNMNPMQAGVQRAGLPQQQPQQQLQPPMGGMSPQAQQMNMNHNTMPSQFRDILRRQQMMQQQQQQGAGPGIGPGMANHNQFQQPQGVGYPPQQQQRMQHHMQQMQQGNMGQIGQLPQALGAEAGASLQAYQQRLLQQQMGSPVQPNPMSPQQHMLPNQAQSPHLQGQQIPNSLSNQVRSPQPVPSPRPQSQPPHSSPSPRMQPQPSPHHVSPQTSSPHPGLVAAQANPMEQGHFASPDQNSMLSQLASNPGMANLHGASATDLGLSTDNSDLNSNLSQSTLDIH

[2] = target: GFP-tagged ΔKBR3-PARP7 (human) (UniProt Q7Z3E1); assay: co-IP

Substance | binding [1] | binding [2]
CBP (CREB-binding protein) (from UniProt Q92793 1-2442) | binds | no binding
p300 (E1A-binding protein p300) (from UniProt Q09472 1-2414) | binds | no binding
